The values below come from publication PMC5349851.

The list shows a part of the results, in another mix than the full data. At the low end of the ranking the order means little. The list shows a part of the results.

Common to all, as to assay: SELEX-seq (CSI, HT-SELEX, round 3)
Common to all, as to details: SELEX-seq: 1x PBS (10 mM phosphate, 137 mM NaCl, 2.7 mM KCl) pH 7.6, 2.5 mM DTT, 50 ng/ul poly dI-dC, 0.1% BSA, 50 nM biotinylated bZIP (1:3 with partner for …); high values mean tight binding; double strand, one strand shown

Test [1] relates to T1, BATF + ATF3.
T1 sequence 1: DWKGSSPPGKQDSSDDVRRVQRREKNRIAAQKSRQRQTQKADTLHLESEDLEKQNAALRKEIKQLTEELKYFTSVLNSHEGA
T1 sequence 2: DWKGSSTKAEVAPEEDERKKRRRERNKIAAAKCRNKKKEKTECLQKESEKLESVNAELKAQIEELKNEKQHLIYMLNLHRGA

The subject of test [2] is T2, BATF2 + ATF3.
T2 sequence 1: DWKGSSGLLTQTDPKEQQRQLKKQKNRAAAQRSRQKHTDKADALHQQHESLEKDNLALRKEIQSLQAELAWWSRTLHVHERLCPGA
T2 sequence 2: T1 sequence 2

Test [3] relates to JUNB + ATF4.
Test [4] deals with T3, JUNB + ATF2.
T3 sequence 1: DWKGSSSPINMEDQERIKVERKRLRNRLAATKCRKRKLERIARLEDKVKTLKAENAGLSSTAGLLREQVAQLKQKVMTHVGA
T3 sequence 2: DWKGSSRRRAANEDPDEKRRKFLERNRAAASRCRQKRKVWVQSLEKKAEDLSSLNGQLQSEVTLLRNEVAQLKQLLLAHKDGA

The subject of test [5] is FOS + JUN.
Test [6] concerns FOS + BATF3.
For test [7], the system named is FOS + ATF2.
The test system of test [8] is T4, JUNB + BATF.
T4 sequence 1: T3 sequence 1
T4 sequence 2: T1 sequence 1

Test [9] concerns T5, JUNB + FOSL1.
T5 sequence 1: T3 sequence 1
T5 sequence 2: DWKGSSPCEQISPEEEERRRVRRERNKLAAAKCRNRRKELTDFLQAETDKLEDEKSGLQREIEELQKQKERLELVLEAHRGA

In test [10] the test system is JUNB + FOS.
In test [11] the test system is T6, JUNB + HLF.
T6 sequence 1: T3 sequence 1
T6 sequence 2: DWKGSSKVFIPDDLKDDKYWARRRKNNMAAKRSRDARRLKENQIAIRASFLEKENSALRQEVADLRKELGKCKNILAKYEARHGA

Test [12] relates to T7, BATF + CEBPE.
T7 sequence 1: T1 sequence 1
T7 sequence 2: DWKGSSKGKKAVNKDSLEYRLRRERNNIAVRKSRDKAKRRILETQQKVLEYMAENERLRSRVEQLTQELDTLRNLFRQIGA

The subject of test [13] is T8, FOSL1 + BATF3.
T8 sequence 1: T5 sequence 2
T8 sequence 2: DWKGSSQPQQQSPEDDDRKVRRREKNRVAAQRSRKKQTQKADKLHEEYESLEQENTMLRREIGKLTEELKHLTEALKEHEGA

Test [14] deals with BATF + CEBPA.
Test [15] concerns T9, ATF5 + BATF3.
T9 sequence 1: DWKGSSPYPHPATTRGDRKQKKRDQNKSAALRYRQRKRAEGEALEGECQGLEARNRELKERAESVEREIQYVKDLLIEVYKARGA
T9 sequence 2: T8 sequence 2

For test [16], the system named is T10, JUNB + CREBZF.
T10 sequence 1: T3 sequence 1
T10 sequence 2: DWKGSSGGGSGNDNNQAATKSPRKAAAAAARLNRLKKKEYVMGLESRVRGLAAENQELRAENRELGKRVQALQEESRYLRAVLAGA

Test [17] deals with ATF5 + JUN.
Test [18] relates to BATF2 + ATF4.
Test [19] has as its system T11, JUNB + BATF2.
T11 sequence 1: T3 sequence 1
T11 sequence 2: T2 sequence 1

The subject of test [20] is T12, BATF + HLF.
T12 sequence 1: T1 sequence 1
T12 sequence 2: T6 sequence 2

For ATGACGTCAT, the binding signal (relative CSI intensity (max = 1)) in test [1] amounted to 0.113; in test [2] it was 0.0121.
As to ATGATGCAAT, the binding signal (relative CSI intensity (max = 1)) in test [3] was 0.000395; in test [4], 9.64e-05; in [1], -0.0407; in [5], 0.000186; in [6], 0.000576; in test [7] it was 0.000177. The binding signal (relative CSI intensity (max = 1)) in test [8] was 0.000564; in test [9] it was -0.000254; in test [10], 0.000119; in test [11], -0.0179; in test [12] it was 0.000928.
With ATGACGCAAT, the binding signal (relative CSI intensity (max = 1)) is 0.00356 in test [4], -0.000268 in [13] and 0.000574 in test [5].
Consider CCTGACGTCA, for which the binding signal (relative CSI intensity (max = 1)) in [14] came out at 0.000182; in test [5], 0.000618; in [7], 0.00727; in test [15], 0.0107; in [9], 0.00464; in test [16] it was 6.71e-05. Besides, the binding signal (relative CSI intensity (max = 1)) in test [12] amounted to 0.000589.
For the sequence ATGACGTAAT, the binding signal (relative CSI intensity (max = 1)) was 0.0836 in test [1], 0.0576 in [13], 0.00946 in test [10] and 0.000865 in test [12].
On to ATGACGGAAT, for which the binding signal (relative CSI intensity (max = 1)) is 0.000252 in [3]; 0.000434 in [4]; 2.16e-05 in test [14]; -0.000268 in test [13]; -4.41e-05 in test [5]; 0.000818 in [6]. The binding signal (relative CSI intensity (max = 1)) is 0.000465 in test [7]; -0.0134 in test [17]; 0.000102 in test [15]; 9.37e-05 in test [2]; 0.000958 in test [18]; -0.000632 in test [9]. For the same sequence, the binding signal (relative CSI intensity (max = 1)) in [10] is 0.00021; in test [19], 0.000361; in test [12], -0.00011; in test [20], -0.0678.
